# Values of other authors, collected in patent US20030012825A1, “Metallized molecule therapies” (priority 2000, published 2003).
# Like-named read-outs stand apart in the source and are kept apart here.
structure (smiles),measurement,setting,value
COC1=C(OC)C(=O)C(C/C=C(\C)CC/C=C(\C)CC/C=C(\C)CC/C=C(\C)CC/C=C(\C)CC/C=C(\C)CC/C=C(\C)CC/C=C(\C)CC/C=C(\C)CCC=C(C)C)=C(C)C1=O [Coenzyme Q10],solubility,"in chloroform, benzene, carbon tetrachloride, acetone and ether",soluble
same,solubility,"in ethanol, water and methanol",insoluble
